pIC50: −log10 of the molar value.
Experiments:
Type in all cases: cell-based
[1] = tested on: MIA PaCa-2 cells; test: MTT proliferation assay, pancreatic carcinoma MIA PaCa-2; conditions: Homo sapiens, MIA PaCa-2, 120 h, Tumor Cell: Pancreatic (MIA PaCa-2), concentrations tested in microM
Description: (§1) We first screened compounds derived from the known pharmacopeia and from a selected natural product collection using two types of assays: (a) measurements of post-translational modifications of proteins; (b) measurements of protein-protein interactions. For the purpose of measuring post-translational modifications of proteins, we used immunofluorescence methods combined with phospho-specific antibodies. For the purpose of quantifying and localizing protein complexes we used fluorescence methods based on protein-fragment complementation assays (PCA). ‘Hits’ from the initial screens were then tested for antiproliferative activity in up to 5 different human tumor cell lines. […] For drugs with antiproliferative activity in PC-3 cells, dose-response curves were generated to determine the EC50 for antiproliferative activity and additional tumor cell lines were tested to determine the breadth of activity. Methods for assay development, validation, screening, and testing of antiproliferative activity are described below.
(§2) Cells were maintained in various media as follows: A549, LoVo and PC-3 (Ham's F12K medium with 2 mM L-glutamine and 1.5 g/L sodium bicarbonate), MIA PaCa-2 (Dulbecco's modified Eagle's medium with 4 mM L-glutamine and 4.5 g/L glucose), U87-MG (MEM+Earle's BSS). […] Background absorbance was established by wells containing medium but no cells. […]

[2] = tested on: PC-3 cells; test: MTT proliferation assay, prostate adenocarcinoma PC-3; conditions: Homo sapiens, Tumor Cell: Prostate (PC-3), 120 hours, concentrations tested in microM
Description: as §1, §2

[3] = tested on: LoVo cells; test: MTT proliferation assay, colon adenocarcinoma LoVo; conditions: Homo sapiens, Tumor Cell: Colon (LoVo), 120 hours, concentrations tested in microM
Description: as §1, §2

pIC50 [1]: 5.22 | pIC50 [2]: 4.97 | pIC50 [3]: 4.77
SMILES: CC(C)c1c(C(=O)Nc2ccccc2)c(-c2ccccc2)c(-c2ccc(F)cc2)n1CC[C@@H](O)C[C@@H](O)CC(=O)O [Atorvastatin]

From patent US20060009506A1, “Drugs for the treatment of neoplastic disorders” (Odyssey Thera, Inc., priority 2004, published 2006)
